Reference: PMC8287938, “Identification and structural analysis of the Schizosaccharomyces pombe SMN complex” (Nucleic Acids Research, 2021)
These are yes or no findings as the source states them, for the method shown. Binding seen in cells or lysates may run through a third protein. These calls come from enrichment with a bait or labelling near it, and not all partners need be listed.

Amino acid sequences for entries named in this document (tags omitted). A change or cut given only in a name is not applied to a line headed by its entry.
UniProt G2TRK8: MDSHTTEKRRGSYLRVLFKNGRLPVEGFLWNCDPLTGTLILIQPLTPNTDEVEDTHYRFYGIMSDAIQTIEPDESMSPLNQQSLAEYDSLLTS
UniProt G2TRR1: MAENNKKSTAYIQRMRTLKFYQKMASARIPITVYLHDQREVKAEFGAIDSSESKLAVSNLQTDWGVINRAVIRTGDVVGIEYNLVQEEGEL
UniProt Q9USY8: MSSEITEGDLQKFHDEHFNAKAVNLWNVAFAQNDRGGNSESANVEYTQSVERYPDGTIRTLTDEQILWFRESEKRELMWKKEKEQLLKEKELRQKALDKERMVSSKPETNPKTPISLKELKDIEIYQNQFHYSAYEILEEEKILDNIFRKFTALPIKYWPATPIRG

Molecular target: GFP-SpG6 (S. pombe) (UniProt G2TRK8)
Assay: affinity purification with mass spectrometry; GFP-Trap beads, extract of S. pombe cells expressing GFP-SpG6 as sole source of SpG6; 10 mM Tris/Cl pH 7.5, 150 mM NaCl, 0.5 mM EDTA, 4 h at 4°C; SDS-PAGE and mass spectrometry

binding | Substance
binds | SpG7 (endogenous) (from UniProt G2TRR1)
binds | SpG8 (endogenous) (from UniProt Q9USY8)
